# Assay: Pharmacokinetics of three single doses of sublingual testosterone solution in healthy premenopausal women
# Experimental: All 16 subjects received each investigational drug dose once in random order. Wash-out between treatments was at least 48 h. Subjects had serial blood samples drawn via an intravenous catheter. Pharmacokinetic parameters were monitored at baseline and (at 2, 4, 6, 8, 10, 20, 30, 60, 90, 120, 180, 230 min) after dosing.
# Blood samples in the placebo condition were only measured at −5, 10, 60 and 230 min.
# For the placebo solution 0.50 ml was administered.
# The different doses were prepared by an unblinded research associate and administered by blinded research associates. […]
# E2 was analysed by a chemiluminescence immunoassay (Siemens), the LLOQ was […]. 3α-diol-G was measured by ELISA (BioVendor), the LLOQ was 0.25 ng/mL. SHBG was measured by an electrochemiluminescent assay (ECLIA, Roche). Albumin was measured by Roche Bromocresol Green (BCG) analysis (Roche).
# The pharmacokinetic parameters were analyzed using the WinNonlin software (version 5.1). Pharmacokinetic parameters including area under the curve, t=0 till t=230 min (AUC0-230), maximum concentration (Cmax) and time to maximum concentration (tmax) were calculated based on actual and baseline corrected individual concentration time curves. […] Tmax was analyzed using a Wilcoxon rank sum test. […]
smiles,measurement,setting,value
"C[C@]12CC[C@H]3[C@@H](CCC4=CC(=O)CC[C@@]43C)[C@@H]1CC[C@@H]2O [Testosterone, testosterone]",changes in SHBG and albumin levels,between and on test days,no statistically significant changes
same,E2 levels,"between the three doses, t=60 and t=230 min",did not change
